The list shows a part of the results.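 Rule for the calls: active = dose-dependent thermal stabilisation significant by F-test of dose-response against flat model at 10% FDR; inactive = not significant.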
Compound: Nc1nc2c(ncn2[C@@H]2O[C@H](COP(=O)(O)OP(=O)(O)OP(=O)(O)O)[C@@H](O)[C@H]2O)c(=O)[nH]1
Experiment: dose-dependent thermal stabilisation call (2D-TPP, DLPTP, 10% FDR) (binary (1 = stabilised)); higher = stabilised by the compound
Details: system: Jurkat gel-filtered lysate; concentration range 1-500 µM

The chains behind the UniProt entries cited, without tags or fusion partners. Where a name states a change or a piece, a line headed by the entry shows the natural chain unless it says otherwise.
UniProt P57737: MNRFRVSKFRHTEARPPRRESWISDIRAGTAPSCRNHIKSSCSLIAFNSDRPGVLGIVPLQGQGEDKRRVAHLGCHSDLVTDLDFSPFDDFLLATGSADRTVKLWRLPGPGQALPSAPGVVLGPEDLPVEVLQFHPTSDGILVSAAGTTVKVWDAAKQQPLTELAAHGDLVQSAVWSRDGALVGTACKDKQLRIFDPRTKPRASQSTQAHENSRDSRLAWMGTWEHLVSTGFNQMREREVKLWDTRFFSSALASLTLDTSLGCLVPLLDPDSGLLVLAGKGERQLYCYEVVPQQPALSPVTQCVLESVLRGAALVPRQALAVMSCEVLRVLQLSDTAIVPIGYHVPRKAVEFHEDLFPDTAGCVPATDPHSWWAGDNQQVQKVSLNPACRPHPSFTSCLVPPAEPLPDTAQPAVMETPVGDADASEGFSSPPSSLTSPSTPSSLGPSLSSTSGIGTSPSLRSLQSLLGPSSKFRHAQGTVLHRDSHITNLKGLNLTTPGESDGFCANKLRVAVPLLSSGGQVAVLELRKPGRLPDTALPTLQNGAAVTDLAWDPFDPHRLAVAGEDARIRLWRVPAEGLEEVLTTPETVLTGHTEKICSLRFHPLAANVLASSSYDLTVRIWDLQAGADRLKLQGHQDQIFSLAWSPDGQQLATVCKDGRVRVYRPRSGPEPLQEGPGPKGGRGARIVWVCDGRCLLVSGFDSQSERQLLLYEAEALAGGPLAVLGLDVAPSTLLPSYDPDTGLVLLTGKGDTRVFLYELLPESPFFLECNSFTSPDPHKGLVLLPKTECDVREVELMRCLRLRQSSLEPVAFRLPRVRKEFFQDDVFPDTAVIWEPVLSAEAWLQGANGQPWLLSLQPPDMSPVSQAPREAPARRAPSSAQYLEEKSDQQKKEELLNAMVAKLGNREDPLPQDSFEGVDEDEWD
UniProt Q96CT7: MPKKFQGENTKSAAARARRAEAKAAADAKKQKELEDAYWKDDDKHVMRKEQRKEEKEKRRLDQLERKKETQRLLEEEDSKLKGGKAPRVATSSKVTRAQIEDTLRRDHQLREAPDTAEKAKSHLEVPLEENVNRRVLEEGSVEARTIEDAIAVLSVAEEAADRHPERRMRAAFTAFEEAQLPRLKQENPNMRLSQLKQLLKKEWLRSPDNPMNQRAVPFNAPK
UniProt P19022: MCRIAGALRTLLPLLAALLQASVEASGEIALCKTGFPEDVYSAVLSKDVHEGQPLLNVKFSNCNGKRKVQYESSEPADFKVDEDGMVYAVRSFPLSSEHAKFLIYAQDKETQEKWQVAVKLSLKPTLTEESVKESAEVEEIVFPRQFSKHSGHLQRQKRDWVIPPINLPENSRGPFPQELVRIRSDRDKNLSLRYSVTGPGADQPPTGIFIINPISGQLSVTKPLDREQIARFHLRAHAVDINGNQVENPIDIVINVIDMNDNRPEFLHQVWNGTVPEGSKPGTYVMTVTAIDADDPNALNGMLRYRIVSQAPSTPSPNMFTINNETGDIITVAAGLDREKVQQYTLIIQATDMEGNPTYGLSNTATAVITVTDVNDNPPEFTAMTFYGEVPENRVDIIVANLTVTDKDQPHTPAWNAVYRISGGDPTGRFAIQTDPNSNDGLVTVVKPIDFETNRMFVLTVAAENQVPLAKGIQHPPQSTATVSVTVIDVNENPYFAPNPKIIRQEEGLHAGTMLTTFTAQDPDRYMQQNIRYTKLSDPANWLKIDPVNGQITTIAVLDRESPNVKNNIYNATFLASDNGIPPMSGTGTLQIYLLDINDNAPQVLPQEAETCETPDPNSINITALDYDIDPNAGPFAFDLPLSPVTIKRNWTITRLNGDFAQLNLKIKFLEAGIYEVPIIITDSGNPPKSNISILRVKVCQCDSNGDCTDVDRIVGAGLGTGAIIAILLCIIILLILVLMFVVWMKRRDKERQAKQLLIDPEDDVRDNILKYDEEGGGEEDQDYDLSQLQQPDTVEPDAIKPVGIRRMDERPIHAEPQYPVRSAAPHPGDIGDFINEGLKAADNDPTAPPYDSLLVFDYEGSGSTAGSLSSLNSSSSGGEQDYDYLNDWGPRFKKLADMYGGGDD
UniProt Q9BT09: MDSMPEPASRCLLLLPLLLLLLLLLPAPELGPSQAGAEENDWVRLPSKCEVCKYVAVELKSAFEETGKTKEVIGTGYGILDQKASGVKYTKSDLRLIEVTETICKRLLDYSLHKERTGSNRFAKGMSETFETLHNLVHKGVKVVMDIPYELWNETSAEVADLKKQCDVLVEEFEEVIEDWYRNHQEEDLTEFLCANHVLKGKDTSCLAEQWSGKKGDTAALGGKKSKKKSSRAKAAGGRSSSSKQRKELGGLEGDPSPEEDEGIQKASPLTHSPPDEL
UniProt O60563, whole entry: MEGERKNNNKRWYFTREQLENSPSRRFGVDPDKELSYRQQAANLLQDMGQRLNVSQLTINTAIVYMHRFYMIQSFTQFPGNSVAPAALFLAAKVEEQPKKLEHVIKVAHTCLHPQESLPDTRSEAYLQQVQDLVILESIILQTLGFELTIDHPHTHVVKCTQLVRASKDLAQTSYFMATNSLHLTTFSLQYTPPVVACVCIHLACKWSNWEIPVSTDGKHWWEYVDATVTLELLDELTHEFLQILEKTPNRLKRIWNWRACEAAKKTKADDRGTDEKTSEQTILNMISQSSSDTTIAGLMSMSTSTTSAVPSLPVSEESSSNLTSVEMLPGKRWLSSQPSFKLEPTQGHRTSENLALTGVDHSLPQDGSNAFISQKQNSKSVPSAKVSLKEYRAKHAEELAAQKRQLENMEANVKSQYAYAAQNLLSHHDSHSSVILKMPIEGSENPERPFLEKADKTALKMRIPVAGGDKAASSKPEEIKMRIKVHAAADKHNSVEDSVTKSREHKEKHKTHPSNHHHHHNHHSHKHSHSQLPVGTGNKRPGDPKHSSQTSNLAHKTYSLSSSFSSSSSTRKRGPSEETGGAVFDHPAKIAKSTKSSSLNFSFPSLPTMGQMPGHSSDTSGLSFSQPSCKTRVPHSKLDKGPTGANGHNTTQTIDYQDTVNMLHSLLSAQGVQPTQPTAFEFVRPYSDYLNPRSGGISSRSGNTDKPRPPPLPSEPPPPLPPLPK
UniProt Q14011: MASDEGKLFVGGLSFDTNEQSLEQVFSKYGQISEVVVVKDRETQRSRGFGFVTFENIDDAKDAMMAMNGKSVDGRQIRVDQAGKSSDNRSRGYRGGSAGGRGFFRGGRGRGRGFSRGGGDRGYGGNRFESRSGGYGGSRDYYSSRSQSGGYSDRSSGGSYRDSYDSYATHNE
UniProt Q92600, whole entry: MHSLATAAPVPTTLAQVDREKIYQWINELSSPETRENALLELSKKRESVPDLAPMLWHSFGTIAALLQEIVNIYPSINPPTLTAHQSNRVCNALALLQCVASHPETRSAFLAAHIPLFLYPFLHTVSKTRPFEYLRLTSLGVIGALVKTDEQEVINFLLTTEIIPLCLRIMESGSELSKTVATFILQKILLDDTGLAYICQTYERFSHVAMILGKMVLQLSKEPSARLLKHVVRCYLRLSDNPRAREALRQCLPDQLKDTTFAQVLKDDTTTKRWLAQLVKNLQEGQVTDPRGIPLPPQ
UniProt Q9H0A8, whole entry: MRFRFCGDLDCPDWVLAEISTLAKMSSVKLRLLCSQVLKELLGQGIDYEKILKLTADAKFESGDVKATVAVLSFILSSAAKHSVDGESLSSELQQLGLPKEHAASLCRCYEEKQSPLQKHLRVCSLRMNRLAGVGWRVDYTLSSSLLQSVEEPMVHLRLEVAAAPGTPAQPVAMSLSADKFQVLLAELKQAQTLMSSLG
UniProt Q9HA77: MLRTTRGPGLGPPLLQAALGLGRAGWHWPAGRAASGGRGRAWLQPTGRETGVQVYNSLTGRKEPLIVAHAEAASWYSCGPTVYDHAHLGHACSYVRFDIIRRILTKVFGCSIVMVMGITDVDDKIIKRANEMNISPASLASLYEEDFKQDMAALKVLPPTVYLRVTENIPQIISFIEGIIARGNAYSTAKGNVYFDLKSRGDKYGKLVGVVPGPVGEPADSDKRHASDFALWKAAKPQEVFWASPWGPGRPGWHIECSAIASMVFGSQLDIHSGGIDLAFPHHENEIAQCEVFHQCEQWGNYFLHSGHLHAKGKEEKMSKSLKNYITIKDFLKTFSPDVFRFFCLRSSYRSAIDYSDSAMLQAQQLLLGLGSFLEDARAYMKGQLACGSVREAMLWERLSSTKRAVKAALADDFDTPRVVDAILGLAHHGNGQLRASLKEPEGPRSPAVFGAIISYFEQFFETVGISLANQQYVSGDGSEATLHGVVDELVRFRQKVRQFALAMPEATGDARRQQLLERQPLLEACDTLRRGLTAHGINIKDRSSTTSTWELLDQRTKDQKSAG
UniProt O95319: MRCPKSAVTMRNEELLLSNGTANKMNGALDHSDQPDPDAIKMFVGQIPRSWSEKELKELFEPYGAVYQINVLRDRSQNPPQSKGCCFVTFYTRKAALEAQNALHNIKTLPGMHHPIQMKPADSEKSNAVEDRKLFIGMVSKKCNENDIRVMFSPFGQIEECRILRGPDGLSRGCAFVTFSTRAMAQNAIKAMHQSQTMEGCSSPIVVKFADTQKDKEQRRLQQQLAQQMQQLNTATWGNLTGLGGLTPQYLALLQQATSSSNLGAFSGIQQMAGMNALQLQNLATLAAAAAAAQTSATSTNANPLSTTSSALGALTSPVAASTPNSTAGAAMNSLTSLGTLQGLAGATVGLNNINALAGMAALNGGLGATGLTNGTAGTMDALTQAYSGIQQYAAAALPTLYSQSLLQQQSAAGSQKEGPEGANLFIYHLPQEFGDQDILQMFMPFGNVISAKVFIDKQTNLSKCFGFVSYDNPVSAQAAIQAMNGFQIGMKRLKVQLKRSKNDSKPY
UniProt O15234, whole entry: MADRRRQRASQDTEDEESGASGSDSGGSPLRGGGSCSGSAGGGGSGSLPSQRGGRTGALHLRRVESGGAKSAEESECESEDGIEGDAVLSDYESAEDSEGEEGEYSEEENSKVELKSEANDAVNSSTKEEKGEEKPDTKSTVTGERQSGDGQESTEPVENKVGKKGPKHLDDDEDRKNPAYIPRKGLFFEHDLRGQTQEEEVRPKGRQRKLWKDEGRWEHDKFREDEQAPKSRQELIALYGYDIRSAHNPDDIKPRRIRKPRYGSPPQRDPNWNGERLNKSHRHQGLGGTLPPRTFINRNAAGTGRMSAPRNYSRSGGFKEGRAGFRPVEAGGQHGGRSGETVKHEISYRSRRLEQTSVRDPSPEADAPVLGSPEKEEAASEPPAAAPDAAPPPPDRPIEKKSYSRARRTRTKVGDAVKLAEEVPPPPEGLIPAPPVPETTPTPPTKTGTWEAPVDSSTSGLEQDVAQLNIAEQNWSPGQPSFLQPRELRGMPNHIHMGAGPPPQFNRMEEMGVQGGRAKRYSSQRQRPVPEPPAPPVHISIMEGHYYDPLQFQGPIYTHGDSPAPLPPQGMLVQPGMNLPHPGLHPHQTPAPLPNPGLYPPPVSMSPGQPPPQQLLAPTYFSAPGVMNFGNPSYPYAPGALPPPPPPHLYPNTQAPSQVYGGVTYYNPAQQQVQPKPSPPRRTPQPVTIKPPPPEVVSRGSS
UniProt Q9Y696: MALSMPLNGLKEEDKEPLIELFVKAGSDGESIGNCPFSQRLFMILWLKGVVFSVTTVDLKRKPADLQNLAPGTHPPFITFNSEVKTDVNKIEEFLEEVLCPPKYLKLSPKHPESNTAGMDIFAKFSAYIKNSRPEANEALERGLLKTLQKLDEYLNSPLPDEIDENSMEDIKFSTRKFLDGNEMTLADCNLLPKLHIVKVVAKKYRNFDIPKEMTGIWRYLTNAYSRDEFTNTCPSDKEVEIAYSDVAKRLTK
UniProt P10606, whole entry: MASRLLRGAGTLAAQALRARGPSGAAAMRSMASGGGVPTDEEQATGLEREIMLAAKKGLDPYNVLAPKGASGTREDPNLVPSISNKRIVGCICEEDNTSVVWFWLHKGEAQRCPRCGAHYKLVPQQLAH
UniProt Q9Y6A4: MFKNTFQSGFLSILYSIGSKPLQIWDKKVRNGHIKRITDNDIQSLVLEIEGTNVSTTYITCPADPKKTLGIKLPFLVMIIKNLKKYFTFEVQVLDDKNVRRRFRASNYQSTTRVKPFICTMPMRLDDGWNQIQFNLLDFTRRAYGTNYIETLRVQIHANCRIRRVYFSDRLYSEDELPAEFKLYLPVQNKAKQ
UniProt Q9BWS9: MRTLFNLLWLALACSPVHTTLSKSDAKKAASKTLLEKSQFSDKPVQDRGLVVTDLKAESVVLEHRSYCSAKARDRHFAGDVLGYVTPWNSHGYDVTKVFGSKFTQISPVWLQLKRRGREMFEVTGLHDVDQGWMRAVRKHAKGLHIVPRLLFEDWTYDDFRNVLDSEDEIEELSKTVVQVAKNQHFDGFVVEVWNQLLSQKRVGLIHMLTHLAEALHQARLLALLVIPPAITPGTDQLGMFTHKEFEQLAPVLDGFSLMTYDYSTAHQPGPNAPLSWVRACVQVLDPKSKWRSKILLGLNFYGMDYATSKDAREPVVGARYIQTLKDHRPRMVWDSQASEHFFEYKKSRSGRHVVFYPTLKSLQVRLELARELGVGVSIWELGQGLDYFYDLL

dose-dependent thermal stabilisation call, active:
CIAO1 (UniProt O76071) 1
CORO7 (UniProt P57737) 1
COG3 (UniProt Q96JB2) 1

dose-dependent thermal stabilisation call, inactive:
CFL2 (UniProt Q9Y281) 0
CCDC124 (UniProt Q96CT7) 0
CDH2 (UniProt P19022) 0
CNPY3 (UniProt Q9BT09) 0
CCNT1 (UniProt O60563) 0
CHML (UniProt P26374) 0
CCDC91 (UniProt Q7Z6B0) 0
CCDC174 (UniProt Q6PII3) 0
CIRBP (UniProt Q14011) 0
CASTOR1 (UniProt Q8WTX7) 0
CNOT9 (UniProt Q92600) 0
COMMD4 (UniProt Q9H0A8) 0
CHMP5 (UniProt Q9NZZ3) 0
CARS2 (UniProt Q9HA77) 0
CELF2 (UniProt O95319) 0
CASC3 (UniProt O15234) 0
CENPS (UniProt Q8N2Z9) 0
CLIC4 (UniProt Q9Y696) 0
COX5B (UniProt P10606) 0
CDC37L1 (UniProt Q7L3B6) 0
CORO1A (UniProt P31146) 0
CFAP20 (UniProt Q9Y6A4) 0
CHID1 (UniProt Q9BWS9) 0
CKAP5 (UniProt Q14008) 0

Reprinted at random: 2 records from the list
dose-dependent thermal stabilisation call, inactive:
CDC37L1 (UniProt Q7L3B6) 0
CORO1A (UniProt P31146) 0

From the supplement of paper PMC7666118
